# Test results taken from publication PMC7527988.
# By UniProt entry, the sequences of proteins in these tests, tags left out.
# UniProt P0A9A6: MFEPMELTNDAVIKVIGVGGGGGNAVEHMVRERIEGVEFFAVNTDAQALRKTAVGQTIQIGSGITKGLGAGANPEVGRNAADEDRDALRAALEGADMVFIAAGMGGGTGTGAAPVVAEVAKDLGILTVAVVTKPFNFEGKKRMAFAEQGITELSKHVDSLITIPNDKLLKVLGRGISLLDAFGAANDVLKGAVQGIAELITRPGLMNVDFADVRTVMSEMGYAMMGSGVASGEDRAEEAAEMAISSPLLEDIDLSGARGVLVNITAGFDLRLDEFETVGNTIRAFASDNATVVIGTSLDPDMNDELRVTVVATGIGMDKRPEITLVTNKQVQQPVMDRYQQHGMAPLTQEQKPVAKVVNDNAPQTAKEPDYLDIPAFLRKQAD
# No constants are given. Whether binding was seen depends on the method and setting. Some binding calls cover weakened binding; strength is not graded here.
# What was measured:
# [1] = molecular target: T1, cell-free synthesized FtsA (E. coli) (UniProt P0ABH0); assay: recruitment to a supported lipid bilayer, fluorescence microscopy; FtsA expressed in PUREfrex2.0 directly on the SLB (DOPC/DOPG/DGS-NTA); 3 µM purified FtsZ-A647 added; 2 mM GTP, 2 mM ATP; with or without Ficoll70 or cell-free synthesized ZapA; spinning disk microscopy at room temperature; only the binder purified
# T1 sequence: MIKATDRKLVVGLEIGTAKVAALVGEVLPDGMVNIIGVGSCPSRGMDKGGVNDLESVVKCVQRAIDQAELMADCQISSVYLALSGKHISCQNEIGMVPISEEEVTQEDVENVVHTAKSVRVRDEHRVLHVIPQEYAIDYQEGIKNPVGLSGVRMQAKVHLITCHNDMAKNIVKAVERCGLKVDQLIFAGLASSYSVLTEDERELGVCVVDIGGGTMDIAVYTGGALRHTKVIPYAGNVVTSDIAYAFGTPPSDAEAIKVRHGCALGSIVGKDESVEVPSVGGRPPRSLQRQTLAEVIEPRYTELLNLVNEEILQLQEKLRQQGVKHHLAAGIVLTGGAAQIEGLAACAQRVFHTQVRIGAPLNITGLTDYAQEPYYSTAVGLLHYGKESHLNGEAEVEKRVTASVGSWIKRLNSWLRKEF
# [2] = molecular target: T1, cell-free synthesized FtsA (E. coli); assay: recruitment to the liposome membrane, confocal fluorescence microscopy; ftsAopt expressed in PUREfrex2.0 inside liposomes (DOPC/DOPE/DOPG/CL) with 3 µM purified FtsZ-A647, 2 mM GTP, 2 mM ATP; 37 °C, 1.5-6 h; control without the ftsAopt gene: FtsZ only in the lumen; only the binder purified
substance,measurement,setting,value
FtsZ labelled with Alexa Fluor 647 (from UniProt P0A9A6 1-383),binding,[1],binds
same,binding,[2],binds
